Data on nine sequences can be found in patent publication US20030108912, “Liver enriched transcription factor” (published 2003).

The chains behind the UniProt entries cited, without tags or fusion partners. Where a name states a change or a piece, a line headed by the entry shows the natural chain unless it says otherwise.
UniProt P22449: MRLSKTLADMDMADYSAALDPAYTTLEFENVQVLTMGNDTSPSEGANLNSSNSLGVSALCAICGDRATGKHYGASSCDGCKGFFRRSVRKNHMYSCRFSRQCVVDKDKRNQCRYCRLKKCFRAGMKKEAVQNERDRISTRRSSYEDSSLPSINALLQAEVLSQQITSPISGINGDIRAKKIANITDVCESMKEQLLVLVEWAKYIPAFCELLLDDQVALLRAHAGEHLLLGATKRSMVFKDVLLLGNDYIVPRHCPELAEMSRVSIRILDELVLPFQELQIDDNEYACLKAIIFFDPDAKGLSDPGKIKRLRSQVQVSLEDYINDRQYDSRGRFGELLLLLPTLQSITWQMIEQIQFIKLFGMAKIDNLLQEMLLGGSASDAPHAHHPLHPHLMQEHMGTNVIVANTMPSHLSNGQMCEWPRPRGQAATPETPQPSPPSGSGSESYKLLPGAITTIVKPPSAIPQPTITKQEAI

Construct, isoform or probe ends are uncertain for at least one entry. For some assays here: A negative result means that nothing was seen under these conditions. For some assays here: A weaker result is weaker than the reference pair of the same experiment.

Data set [1] deals with HNF-4 (purified from rat liver) (Rattus norvegicus) (UniProt P22449). As to the kind of experiment: EMSA. Particulars: purified native protein, label: 32P.
The target in data set [2] is HNF-4 full length (pf7 cDNA) (Rattus norvegicus) (UniProt P22449). As to the kind of experiment: EMSA. The note with it: protein translated in vitro, label: 32P.
The target of data set [3] is HNF-4 (purified from rat liver) (Rattus norvegicus) (UniProt P22449). Nature of the data set: competition with a labelled probe. Particulars: purified native protein.
Data set [4] deals with HNF-4 PflM I truncation (C-terminal 36 aa removed) C-terminal truncation, 36 aa shorter (template cut at nt 1309) (Rattus norvegicus) (UniProt P22449). Nature of the data set: EMSA. Particulars: protein translated in vitro, label: 32P. For orientation: In EMSA bound probe runs differently from free probe, usually more slowly.
Data set [5] deals with HNF-4 Hga I truncation C-terminal truncation (template cut at nt 1171) (Rattus norvegicus) (UniProt P22449). Nature of the data set: EMSA. Particulars: protein translated in vitro, label: 32P.
The mark [6] stands for this setting: no better than unrelated oligo at 50-500-fold excess.

For the sequence “AGCAAACAGGGGCTAAGTCCACTGGCTG (double strand) [LF-A1]”, the binding result in data set [1] (signal stronger than HNF4P, somewhat lower affinity than APF1) is reported as “binds”; in data set [2] (stronger signal than HNF4P), “binds”. Consider “AGCTCTCAGAACACTGTGTTCTGA (double strand) [GRE]”, for which, in data set [3] (setting [6]), the binding result is “no binding”. “AGCTCTCAGGTCACTGTGACCTGA (double strand) [ERE]”: the binding result in data set [3] (competes -151 to -130 probe only slightly better than unrelated oligo, 50-500-fold excess, much less than HNF4D) is reported as “binds more weakly”. Regarding “AGCTCTCAGGTCATGACCTGA (double strand) [TRE]”, the binding result in data set [3] (setting [6]) is recorded as “no binding”. Turning to “GATCCTCGGGAAAGGGAAACCGAAACTGAAGCC (double strand) [015]”, the binding result in data set [3] (unrelated competitor control) is listed as “no binding”. Regarding “TCGACCCTAGGCAAGGTTCATATGGCC (double strand) [HNF4P]”, the binding result in data set [1] (weaker than APF1), in data set [2], in data set [4] (gel not shown) and in data set [5] (gel not shown) was “binds” in each case. As to “TCGACTCTCTGCAAGGGTCATCAGTAC (double strand) [HNF4D]”, the binding result in data set [1] (weakest of the four HNF-4 sites) is “binds more weakly”.

As to “TCGAGCGCTGGGCAAAGGTCACCTGC (double strand) [APF1]”, the binding result was “binds” in data set [1] (strongest: APF1 > -151 to -130 = HNF4P > HNF4D); “binds” in data set [2] (sequence-specific, binds as homodimer); “binds” in data set [4]; “binds” in data set [5].

As for “TCGAGGCAAGGTTCATATTTGTGTAG (double strand) [-151 to -130 TTR]”, the binding result in data set [1] (weaker than APF1, equal to HNF4P) is “binds”; in data set [2] (co-translation with truncations gives heterodimer bands, gel not shown) it was “binds”.
